Values from PubChem BioAssay AID652259 (Drosophila RNAi Screening Center, 2013)
In all, the deposit lists about 22,000 reagents; shown is a random part of those with a known target gene and a result. Over the whole deposit, 233 (1.1%) are marked active. 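Light values are raw, unnormalised plate reads; the ratio scores behind the reporter calls were not deposited.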 Unmarked entries are inactive. Names joined by + are all predicted targets of the reagent. Not given: the amount of reagent, the time to read-out, the dose of the treatment.

- Test: 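Genome-wide hunt for genes that control Wingless pathway activity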 (primary screen)
- System: Drosophila clone 8 imaginal disc epithelial cells
- Reagent: long dsRNA against Drosophila genes
- Challenge: pathway stimulated by co-transfected Wingless expression plasmid
- Read-out: 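Dual luciferase reads per well after Wingless plasmid stimulation: reporter firefly light and Renilla control light; activity is firefly divided by Renilla, a ratio not deposited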
- Reading the numbers: firefly reporter light: higher = more Wg reporter light, before normalisation; Renilla control light: higher = more transfected or surviving cells
- Call rule: 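a knock-down is a candidate when at least two out of four statistical tests show it departing from its plate mean; one test alone signals a weak candidate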
- Meaning of the calls: active = candidate regulator (raises or lowers reporter); inactive = not a candidate

Target gene | DRSC id | firefly reporter light, replicate 1 | firefly reporter light, replicate 2 | Renilla control light, replicate 1 | Renilla control light, replicate 2
Wbp2 | DRSC09821 | 2913 | – | 328 | –
Nuf2 | DRSC03123 | 10896 | – | 3554 | –
CG8281 | DRSC10976 | 1307 | 7146 | 1460 | 3605
ZnT33D | DRSC02591 | 2442 | 5616 | 872 | 2147
Dis3 | DRSC16034 | 2705 | 4941 | 1082 | 1545
CG10864 | DRSC14273 | 14189 | – | 2681 | –
CG4763 | DRSC04009 | 18698 | – | 11224 | –
CG4763 | DRSC04487 | 3155 | 6152 | 842 | 2187
CG33217 | DRSC22907 | 9.27e5 | 8.81e5 | 4.78e5 | 20399
Nepl19 | DRSC14875 | 3805 | – | 1313 | –
CG7369 | DRSC11822 | 4947 | – | 2357 | –
gw | DRSC17135 | 4803 | 8102 | 896 | 1712
gw | DRSC17160 | 17224 | – | 5288 | –
CG13177 | DRSC06303 | 10619 | – | 2612 | –
CkIIalpha-i1 | DRSC11115 | 12201 | – | 4249 | –
CG4238 | DRSC00090 | 28295 | – | 13728 | –
CG4238 | DRSC00644 | 2866 | 11090 | 1235 | 4327
Naam | DRSC16252 | 18192 | – | 5394 | –
CG5388 | DRSC15789 | 35202 | – | 7012 | –
Alms1a | DRSC18558 | 16570 | – | 7813 | –
CG15237 | DRSC04971 | 2914 | 6273 | 224 | 3428
CG7289 | DRSC00697 | 10227 | – | 4170 | –
sas | DRSC12631 | 9696 | – | 2512 | –
RYBP | DRSC04117 | 10481 | – | 3640 | –
CG5773 | DRSC06955 | 5905 | – | 1959 | –
PTP-ER | DRSC04636 | 8314 | – | 2167 | –
CG10602 | DRSC02075 | 8032 | – | 2114 | –
conu | DRSC07810 | 3730 | – | 730 | –

4 entries from above, sorted by “firefly reporter light, replicate 1”, highest first:
Target gene | DRSC id | firefly reporter light, replicate 1 | firefly reporter light, replicate 2 | Renilla control light, replicate 1 | Renilla control light, replicate 2
gw | DRSC17160 | 17224 | – | 5288 | –
CkIIalpha-i1 | DRSC11115 | 12201 | – | 4249 | –
CG13177 | DRSC06303 | 10619 | – | 2612 | –
gw | DRSC17135 | 4803 | 8102 | 896 | 1712

More entries follow:
Target gene | DRSC id | firefly reporter light, replicate 1 | firefly reporter light, replicate 2 | Renilla control light, replicate 1 | Renilla control light, replicate 2
CG17237 | DRSC00491 | 3141 | 7872 | 1193 | 3272
Acp53Ea | DRSC05916 | 5251 | – | 2152 | –
lectin-46Ca | DRSC06612 | 14768 | – | 4684 | –
CG4622 | DRSC04479 | 4891 | – | 1159 | –
CG18367 | DRSC06545 | 9856 | 9.12e5 | 3524 | 4.16e5
CG16800 | DRSC02518 | 3101 | 8205 | 1317 | 4003
Dcps | DRSC12299 | 6898 | – | 2033 | –
rau | DRSC03125 | 5248 | – | 3178 | –
GNBP-like3 | DRSC06385 | 7132 | – | 2423 | –
Vha16-5 | DRSC02986 | 2992 | 9067 | 1325 | 4694
CG7065 | DRSC18420 | 3527 | 7268 | 1143 | 1785
HisT | DRSC05051 | 15092 | – | 6496 | –
HisT | DRSC05052 | 20860 | – | 8614 | –
HisT | DRSC06405 | 14886 | – | 1408 | –
CG14610 + asRNA:CR42738 | DRSC12554 | 15100 | – | 2765 | –
Ect3 | DRSC15462 | 18567 | – | 7584 | –
kairos | DRSC19972 | 3044 | 11778 | 1362 | 3001
alpha-Est1 | DRSC12612 | 4640 | – | 891 | –
CG42568 + DnaJ-60 | DRSC04207 | 3464 | 8486 | 480 | 2274
CG42568 + DnaJ-60 | DRSC04611 | 14061 | – | 4144 | –
CG4911 | DRSC10456 | 2282 | – | 1441 | –
CG34315 + Orc3 | DRSC07642 | 5898 | – | 2107 | –
beat-Va | DRSC14192 | 16691 | – | 5376 | –
CG34458 | DRSC06925 | 6326 | – | 2576 | –
CG11563 | DRSC14327 | 21932 | – | 15507 | –
ymp | DRSC13720 | 4774 | – | 2459 | –
ymp | DRSC14482 | 31898 | – | 21467 | –
Kr-h2 | DRSC03356 | 2315 | 6720 | 577 | 2424
CG13640 | DRSC14639 | 14546 | – | 14098 | –
CG1965 | DRSC12577 | 10576 | – | 4800 | –
CG1965 | DRSC21828 | 6.14e5 | 5.61e5 | 2.82e5 | 2.01e5
Tsf1 | DRSC20296 | 24613 | – | 14752 | –
CG5937 | DRSC18392 | 17786 | – | 10134 | –
CG12204 | DRSC19442 | 2987 | 5948 | 1348 | 1080
Irp-1B | DRSC16720 | 13872 | – | 2472 | –
CG14488 | DRSC06460 | 5338 | – | 1969 | –
RhoBTB | DRSC11877 | 3653 | – | 1490 | –
Atg5 | DRSC18112 | 2267 | 7546 | 976 | 2384
Tmtc1 | DRSC00147 | 18323 | – | 7136 | –
Tmtc1 | DRSC00151 | 21715 | – | 8084 | –
Tmtc1 | DRSC00314 | 3188 | 6205 | 1387 | 2137
Tmtc1 | DRSC00411 | 2860 | 7013 | 1115 | 2666
Pgant9 | DRSC05621 | 19440 | – | 9050 | –
Pgant9 | DRSC06584 | 9288 | – | 2699 | –
Pgant9 | DRSC07185 | 10199 | – | 3057 | –
Pgant9 | DRSC07186 | 11148 | – | 4168 | –
Pgant9 | DRSC07187 | 9412 | – | 3334 | –
Pgant9 | DRSC07189 | 7512 | – | 2541 | –
Pgant9 | DRSC21807 | 6.76e5 | 6.59e5 | 3.41e5 | 2.38e5
Pgant9 | DRSC22076 | 9.49e5 | 9.06e5 | 4.58e5 | 4.91e5
